Test results taken from the supplement of paper PMC12067093, “Discovery and optimisation of a covalent ligand for TRIM25 and its application to targeted protein ubiquitination” (Chemical Science, 2025).
The other results are listed elsewhere or left out.
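Note: competitive profiling in live THP-1 cells: cysteine peptides tagged with an iodoacetamide desthiobiotin (IA-DTB) probe, intensity after compound treatment relative to DMSO-treated cells.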

Amino acid sequences for entries named in this document (tags omitted). A change or cut given only in a name is not applied to a line headed by its entry.
UniProt Q04721: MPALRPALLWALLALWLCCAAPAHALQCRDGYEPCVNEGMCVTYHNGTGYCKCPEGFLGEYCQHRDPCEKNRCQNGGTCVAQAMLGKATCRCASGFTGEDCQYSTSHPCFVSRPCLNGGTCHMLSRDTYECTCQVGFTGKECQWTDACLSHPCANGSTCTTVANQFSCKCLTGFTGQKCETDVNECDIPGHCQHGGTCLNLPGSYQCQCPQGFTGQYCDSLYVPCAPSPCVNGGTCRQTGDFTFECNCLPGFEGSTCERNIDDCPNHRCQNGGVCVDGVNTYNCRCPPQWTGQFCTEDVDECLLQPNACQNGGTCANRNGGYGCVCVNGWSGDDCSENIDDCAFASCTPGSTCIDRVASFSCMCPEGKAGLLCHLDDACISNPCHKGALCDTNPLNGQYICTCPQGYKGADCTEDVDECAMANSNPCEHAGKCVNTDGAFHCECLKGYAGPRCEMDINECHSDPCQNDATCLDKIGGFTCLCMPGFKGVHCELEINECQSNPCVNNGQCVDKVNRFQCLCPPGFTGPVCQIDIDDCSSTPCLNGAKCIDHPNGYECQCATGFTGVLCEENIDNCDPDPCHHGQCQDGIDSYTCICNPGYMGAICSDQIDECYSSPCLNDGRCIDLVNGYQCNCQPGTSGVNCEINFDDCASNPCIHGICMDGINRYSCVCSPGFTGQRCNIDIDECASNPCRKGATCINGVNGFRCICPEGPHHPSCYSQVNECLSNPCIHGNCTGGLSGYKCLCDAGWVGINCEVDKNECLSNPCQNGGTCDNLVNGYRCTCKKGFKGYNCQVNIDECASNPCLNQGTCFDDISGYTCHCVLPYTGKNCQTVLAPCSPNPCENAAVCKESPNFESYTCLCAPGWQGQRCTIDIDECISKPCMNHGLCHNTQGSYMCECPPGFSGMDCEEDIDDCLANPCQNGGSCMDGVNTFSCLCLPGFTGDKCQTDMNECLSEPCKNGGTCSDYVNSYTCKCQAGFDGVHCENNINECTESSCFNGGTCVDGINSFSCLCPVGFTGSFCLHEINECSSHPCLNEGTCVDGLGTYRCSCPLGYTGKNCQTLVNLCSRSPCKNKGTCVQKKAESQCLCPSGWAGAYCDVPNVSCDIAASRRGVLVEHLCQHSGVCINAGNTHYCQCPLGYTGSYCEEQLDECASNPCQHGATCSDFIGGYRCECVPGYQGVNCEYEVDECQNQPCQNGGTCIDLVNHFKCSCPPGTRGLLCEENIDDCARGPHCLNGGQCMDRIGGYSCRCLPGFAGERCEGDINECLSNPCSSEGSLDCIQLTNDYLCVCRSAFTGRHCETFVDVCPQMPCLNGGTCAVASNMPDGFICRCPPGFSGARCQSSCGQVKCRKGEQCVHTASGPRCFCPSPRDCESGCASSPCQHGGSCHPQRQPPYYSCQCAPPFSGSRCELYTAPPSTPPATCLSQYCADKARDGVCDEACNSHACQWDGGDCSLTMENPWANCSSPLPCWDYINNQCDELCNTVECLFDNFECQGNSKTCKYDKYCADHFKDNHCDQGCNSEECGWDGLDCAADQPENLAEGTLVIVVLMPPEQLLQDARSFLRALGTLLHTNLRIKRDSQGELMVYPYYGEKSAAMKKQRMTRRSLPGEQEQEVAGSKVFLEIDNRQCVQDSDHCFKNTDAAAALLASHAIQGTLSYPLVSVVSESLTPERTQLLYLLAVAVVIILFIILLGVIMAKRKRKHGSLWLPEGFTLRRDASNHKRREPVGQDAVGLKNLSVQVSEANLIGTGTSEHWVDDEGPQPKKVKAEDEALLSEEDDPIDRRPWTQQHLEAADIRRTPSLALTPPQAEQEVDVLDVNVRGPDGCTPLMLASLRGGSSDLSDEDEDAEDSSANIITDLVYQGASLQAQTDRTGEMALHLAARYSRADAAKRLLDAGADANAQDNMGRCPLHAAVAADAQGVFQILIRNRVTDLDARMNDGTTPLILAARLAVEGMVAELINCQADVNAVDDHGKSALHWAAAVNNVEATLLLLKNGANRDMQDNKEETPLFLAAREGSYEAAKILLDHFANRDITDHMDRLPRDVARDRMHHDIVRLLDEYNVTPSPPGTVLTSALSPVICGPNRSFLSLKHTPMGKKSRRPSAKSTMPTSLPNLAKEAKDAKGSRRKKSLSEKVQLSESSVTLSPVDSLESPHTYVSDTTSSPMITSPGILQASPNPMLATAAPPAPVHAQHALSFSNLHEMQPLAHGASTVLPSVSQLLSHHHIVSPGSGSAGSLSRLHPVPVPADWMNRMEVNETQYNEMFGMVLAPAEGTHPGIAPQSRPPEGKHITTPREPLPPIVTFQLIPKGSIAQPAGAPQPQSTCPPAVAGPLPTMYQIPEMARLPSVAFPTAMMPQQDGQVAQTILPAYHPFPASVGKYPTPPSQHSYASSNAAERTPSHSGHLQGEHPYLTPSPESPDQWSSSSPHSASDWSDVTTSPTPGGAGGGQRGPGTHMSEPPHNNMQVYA
UniProt Q86WI3: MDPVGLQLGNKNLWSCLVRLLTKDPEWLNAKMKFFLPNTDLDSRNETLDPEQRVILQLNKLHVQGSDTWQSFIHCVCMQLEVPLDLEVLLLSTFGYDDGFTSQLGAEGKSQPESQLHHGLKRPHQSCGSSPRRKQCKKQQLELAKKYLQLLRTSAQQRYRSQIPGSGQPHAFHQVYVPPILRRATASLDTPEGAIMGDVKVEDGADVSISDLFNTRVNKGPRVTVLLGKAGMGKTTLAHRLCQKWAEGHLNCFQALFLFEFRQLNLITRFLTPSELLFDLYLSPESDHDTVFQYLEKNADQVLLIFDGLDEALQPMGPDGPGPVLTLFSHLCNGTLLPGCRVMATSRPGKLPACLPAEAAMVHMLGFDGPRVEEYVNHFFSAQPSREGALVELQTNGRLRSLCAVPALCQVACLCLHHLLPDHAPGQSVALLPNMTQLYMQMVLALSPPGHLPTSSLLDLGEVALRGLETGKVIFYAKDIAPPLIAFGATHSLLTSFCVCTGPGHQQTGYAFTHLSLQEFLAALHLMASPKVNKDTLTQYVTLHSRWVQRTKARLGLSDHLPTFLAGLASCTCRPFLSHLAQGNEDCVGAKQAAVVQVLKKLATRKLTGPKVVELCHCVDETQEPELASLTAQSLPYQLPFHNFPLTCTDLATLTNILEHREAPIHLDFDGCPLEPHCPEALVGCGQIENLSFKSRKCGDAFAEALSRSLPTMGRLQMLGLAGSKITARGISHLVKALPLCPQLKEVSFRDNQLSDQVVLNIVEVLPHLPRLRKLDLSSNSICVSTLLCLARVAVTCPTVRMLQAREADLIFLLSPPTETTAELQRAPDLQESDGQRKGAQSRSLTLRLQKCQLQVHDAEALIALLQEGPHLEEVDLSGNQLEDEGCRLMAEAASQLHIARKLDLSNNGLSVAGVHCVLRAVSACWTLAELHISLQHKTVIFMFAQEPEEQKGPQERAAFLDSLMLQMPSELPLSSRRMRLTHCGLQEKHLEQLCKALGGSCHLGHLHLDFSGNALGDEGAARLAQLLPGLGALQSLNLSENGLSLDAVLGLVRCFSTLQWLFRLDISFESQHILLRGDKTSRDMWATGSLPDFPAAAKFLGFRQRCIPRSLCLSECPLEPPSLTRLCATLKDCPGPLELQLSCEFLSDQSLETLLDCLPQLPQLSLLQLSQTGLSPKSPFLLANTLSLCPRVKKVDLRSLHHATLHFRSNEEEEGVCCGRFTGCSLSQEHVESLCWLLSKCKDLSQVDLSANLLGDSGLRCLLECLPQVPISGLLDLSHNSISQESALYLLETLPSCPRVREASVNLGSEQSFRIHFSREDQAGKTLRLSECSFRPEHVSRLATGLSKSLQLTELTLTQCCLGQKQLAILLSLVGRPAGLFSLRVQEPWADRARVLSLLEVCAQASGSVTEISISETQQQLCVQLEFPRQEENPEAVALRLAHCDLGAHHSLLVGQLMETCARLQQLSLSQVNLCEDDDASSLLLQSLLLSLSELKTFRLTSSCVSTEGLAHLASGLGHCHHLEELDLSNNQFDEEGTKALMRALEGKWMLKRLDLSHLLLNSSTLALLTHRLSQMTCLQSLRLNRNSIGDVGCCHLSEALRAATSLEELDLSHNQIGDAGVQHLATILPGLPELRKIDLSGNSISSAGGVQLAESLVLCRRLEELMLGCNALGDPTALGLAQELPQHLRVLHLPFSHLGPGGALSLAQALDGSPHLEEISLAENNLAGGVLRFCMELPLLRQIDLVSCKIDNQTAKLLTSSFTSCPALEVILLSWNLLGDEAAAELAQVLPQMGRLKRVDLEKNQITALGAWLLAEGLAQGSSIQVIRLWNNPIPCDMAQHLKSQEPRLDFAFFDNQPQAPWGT
UniProt Q8TAT6: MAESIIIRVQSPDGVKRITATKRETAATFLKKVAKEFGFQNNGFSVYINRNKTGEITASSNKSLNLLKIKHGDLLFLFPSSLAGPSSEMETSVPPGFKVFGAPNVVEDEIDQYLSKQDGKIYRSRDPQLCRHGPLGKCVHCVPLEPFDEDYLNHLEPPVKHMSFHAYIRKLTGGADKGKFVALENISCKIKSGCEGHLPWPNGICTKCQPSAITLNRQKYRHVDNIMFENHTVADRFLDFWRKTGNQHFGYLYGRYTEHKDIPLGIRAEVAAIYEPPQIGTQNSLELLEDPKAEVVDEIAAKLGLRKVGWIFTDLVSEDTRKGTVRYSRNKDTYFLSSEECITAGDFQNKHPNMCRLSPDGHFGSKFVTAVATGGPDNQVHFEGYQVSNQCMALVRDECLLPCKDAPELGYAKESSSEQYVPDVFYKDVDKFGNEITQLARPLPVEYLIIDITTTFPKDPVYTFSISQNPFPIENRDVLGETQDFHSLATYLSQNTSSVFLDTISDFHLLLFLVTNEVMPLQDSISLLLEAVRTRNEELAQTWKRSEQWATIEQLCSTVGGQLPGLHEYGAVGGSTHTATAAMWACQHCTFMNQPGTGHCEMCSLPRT
UniProt Q86UT6, whole entry, looked up: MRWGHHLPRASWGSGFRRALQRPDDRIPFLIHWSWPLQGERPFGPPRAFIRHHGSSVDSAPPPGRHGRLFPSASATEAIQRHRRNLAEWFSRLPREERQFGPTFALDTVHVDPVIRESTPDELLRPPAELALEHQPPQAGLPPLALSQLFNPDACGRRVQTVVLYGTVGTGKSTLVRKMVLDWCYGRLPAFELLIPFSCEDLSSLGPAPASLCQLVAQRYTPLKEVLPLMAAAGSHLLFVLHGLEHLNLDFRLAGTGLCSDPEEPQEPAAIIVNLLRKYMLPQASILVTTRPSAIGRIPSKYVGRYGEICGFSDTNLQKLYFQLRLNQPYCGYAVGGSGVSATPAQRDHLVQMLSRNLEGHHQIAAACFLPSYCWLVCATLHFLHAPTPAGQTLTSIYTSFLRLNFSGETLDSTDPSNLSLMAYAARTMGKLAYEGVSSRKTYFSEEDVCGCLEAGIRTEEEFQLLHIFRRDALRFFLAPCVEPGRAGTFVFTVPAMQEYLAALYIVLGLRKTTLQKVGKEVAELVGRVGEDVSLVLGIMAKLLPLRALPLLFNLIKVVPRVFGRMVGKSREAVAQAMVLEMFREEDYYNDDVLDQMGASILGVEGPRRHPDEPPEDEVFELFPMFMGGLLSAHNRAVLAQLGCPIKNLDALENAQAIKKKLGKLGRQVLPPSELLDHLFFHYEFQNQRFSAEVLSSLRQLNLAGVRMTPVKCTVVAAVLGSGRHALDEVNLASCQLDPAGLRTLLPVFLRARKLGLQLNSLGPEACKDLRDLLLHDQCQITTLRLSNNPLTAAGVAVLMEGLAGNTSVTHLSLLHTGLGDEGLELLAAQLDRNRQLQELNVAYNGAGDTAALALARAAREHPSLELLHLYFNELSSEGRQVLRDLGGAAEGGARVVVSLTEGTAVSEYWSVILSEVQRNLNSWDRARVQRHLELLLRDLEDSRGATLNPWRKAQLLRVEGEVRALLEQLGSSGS
UniProt Q15738: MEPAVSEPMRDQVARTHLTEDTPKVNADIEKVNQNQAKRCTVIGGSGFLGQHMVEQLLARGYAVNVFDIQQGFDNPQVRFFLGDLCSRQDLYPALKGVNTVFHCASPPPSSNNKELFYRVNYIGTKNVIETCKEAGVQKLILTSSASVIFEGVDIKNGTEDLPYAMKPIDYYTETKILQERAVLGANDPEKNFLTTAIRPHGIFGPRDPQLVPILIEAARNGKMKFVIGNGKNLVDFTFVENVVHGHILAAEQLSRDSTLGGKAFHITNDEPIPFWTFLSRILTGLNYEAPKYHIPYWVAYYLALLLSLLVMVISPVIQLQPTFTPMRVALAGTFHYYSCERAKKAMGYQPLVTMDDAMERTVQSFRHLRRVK
UniProt P78549: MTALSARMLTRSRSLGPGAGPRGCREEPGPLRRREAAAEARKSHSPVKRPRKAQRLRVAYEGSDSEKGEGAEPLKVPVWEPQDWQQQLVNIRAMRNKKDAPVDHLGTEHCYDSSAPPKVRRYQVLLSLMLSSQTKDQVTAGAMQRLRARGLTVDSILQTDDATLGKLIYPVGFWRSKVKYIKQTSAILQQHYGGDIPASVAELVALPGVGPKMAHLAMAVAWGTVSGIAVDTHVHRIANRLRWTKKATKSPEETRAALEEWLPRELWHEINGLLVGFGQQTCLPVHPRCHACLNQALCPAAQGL

These targets were tested with Cc1cc(ccc1-c1ccccc1)C(=O)N1CCCN(CC1)C(=O)CCl [compound 10] (assay: probe-labelled cysteine peptide fold change vs DMSO (competition) (log2 fold change); higher = less target engagement (more negative = stronger competition)). Conditions: 10 µM; THP-1; incubation time: 4 h.
In the case of “NSUN2_Q08J23_673+678_YEPDSANPDALQCPIVLCGWR (UniProt Q08J23)”, the “probe-labelled cysteine peptide fold change” value was 0.329.
With “NSMCE4A_Q9NXX6_226_THTFHFLLGSIYGECPVPKPR (UniProt Q9NXX6)” the “probe-labelled cysteine peptide fold change” value was -0.197.
For “NOTCH2_Q04721_870_CTIDIDECISK (UniProt Q04721)”, the “probe-labelled cysteine peptide fold change” value was -0.147.
In the case of “NLRC5_Q86WI3_1671_RLEELMLGCNALGDPTALGLAQELPQHLR (UniProt Q86WI3)”, the “probe-labelled cysteine peptide fold change” value was -0.0917.
For “NOP16_Q9Y3C1_36_IECSHIR (UniProt Q9Y3C1)”, the “probe-labelled cysteine peptide fold change” value was -0.17.
In the case of “NMNAT1_Q9HAN9_111_LEASDCDHQQNSPTLERPGRK (UniProt Q9HAN9)”, the “probe-labelled cysteine peptide fold change” value was -0.146.
“NPLOC4_Q8TAT6_130_SRDPQLCR (UniProt Q8TAT6)” was tested, and the “probe-labelled cysteine peptide fold change” value was 0.114.
In the case of “NSMCE2_Q96MF7_185_VCGHTYEEDAIVR (UniProt Q96MF7)”, the “probe-labelled cysteine peptide fold change” value was 0.341.
With “NLRX1_Q86UT6_259_LAGTGLCSDPEEPQEPAAIIVNLLR (UniProt Q86UT6)” the “probe-labelled cysteine peptide fold change” value was -0.388.
“NT5C3A_Q9H0P0_73_VEEIICGLIK (UniProt Q9H0P0)” was tested, and the “probe-labelled cysteine peptide fold change” value was -0.275.
For “NOP2_P46087_463_VLLDAPCSGTGVISK (UniProt P46087)”, the “probe-labelled cysteine peptide fold change” value was -0.0187.
In the case of “NSD2_O96028_594_NLSDACK (UniProt O96028)”, the “probe-labelled cysteine peptide fold change” value was -0.0335.
For “NSDHL_Q15738_340_VALAGTFHYYSCER (UniProt Q15738)”, the “probe-labelled cysteine peptide fold change” value was -0.142.
For “NOP56_O00567_384_IDCFSEVPTSVFGEK (UniProt O00567)”, the “probe-labelled cysteine peptide fold change” value was -0.0363.
For “NLRX1_Q86UT6_735_HALDEVNLASCQLDPAGLR (UniProt Q86UT6)”, the “probe-labelled cysteine peptide fold change” value was 0.0144.
For “NMT2_O60551_485_CPGTDSEK (UniProt O60551)”, the “probe-labelled cysteine peptide fold change” value was -0.0655.
With “NOC4L_Q9BVI4_509_KGPEPVPLEFIPAQGLLGRPGELCAQHFTLS (UniProt Q9BVI4)” the “probe-labelled cysteine peptide fold change” value was -0.106.
In the case of “NLRP7_Q8WX94_540_ELEATFGCR (UniProt Q8WX94)”, the “probe-labelled cysteine peptide fold change” value was -0.00791.
“NPC2_P61916_93_AVVHGILMGVPVPFPIPEPDGCK (UniProt P61916)” was tested, and the “probe-labelled cysteine peptide fold change” value was -0.0189.
For “NT5C_Q8TCD5_166_GQEETPSWEHILFTCCHNR (UniProt Q8TCD5)”, the “probe-labelled cysteine peptide fold change” value was -0.137.
With “NOP10_Q9NPE3_28_FDPMGQQTCSAHPAR (UniProt Q9NPE3)” the “probe-labelled cysteine peptide fold change” value was -0.0182.
With “NSD1_Q96L73_2077_CGAPNCSGFLGVRPK (UniProt Q96L73)” the “probe-labelled cysteine peptide fold change” value was -0.169.
For “NOP58_Q9Y2X3_106_LNLSCIHSPVVNELMR (UniProt Q9Y2X3)”, the “probe-labelled cysteine peptide fold change” value was -0.0637.
For “NOTCH1_P46531_2140_SPQLHGAPLGGTPTLSPPLCSPNGYLGSLKPGVQGK (UniProt P46531)”, the “probe-labelled cysteine peptide fold change” value was -0.633.
With “NOL9_Q5SY16_219_WSMQNFSPQCSIVLLEHLK (UniProt Q5SY16)” the “probe-labelled cysteine peptide fold change” value was 0.108.
In the case of “NR2C1_P13056_200_SSNCAASTEK (UniProt P13056)”, the “probe-labelled cysteine peptide fold change” value was -0.24.
For “NSUN5_Q96P11_278+279_AGVSCCELAEEDFLAVSPSDPR (UniProt Q96P11)”, the “probe-labelled cysteine peptide fold change” value was 0.223.
In the case of “NOL6_Q9H6R4_1034_QAVDSPAASFCR (UniProt Q9H6R4)”, the “probe-labelled cysteine peptide fold change” value was 0.0206.
In the case of “NT5DC1_Q5TFE4_139_YYFYDNYFDLPGALLCAR (UniProt Q5TFE4)”, the “probe-labelled cysteine peptide fold change” value was 1.21.
In the case of “NRDC_O43847_690_IVNTPQGCLWYK (UniProt O43847)”, the “probe-labelled cysteine peptide fold change” value was -0.0135.
“NLRC5_Q86WI3_917_KLDLSNNGLSVAGVHCVLR (UniProt Q86WI3)” was tested, and the “probe-labelled cysteine peptide fold change” value was -0.142.
With “NPLOC4_Q8TAT6_355_HPNMCR (UniProt Q8TAT6)” the “probe-labelled cysteine peptide fold change” value was 0.0218.
With “NSMAF_Q92636_158_ASCLDK (UniProt Q92636)” the “probe-labelled cysteine peptide fold change” value was 0.182.
In the case of “NOP9_Q86U38_141_CGVHVLQSALLQLPR (UniProt Q86U38)”, the “probe-labelled cysteine peptide fold change” value was 0.271.
For “NOB1_Q9ULX3_147_GHSACEPENLEFSSFMFWR (UniProt Q9ULX3)”, the “probe-labelled cysteine peptide fold change” value was -0.0022.
With “NOTCH2_Q04721_427_GADCTEDVDECAMANSNPCEHAGK (UniProt Q04721)” the “probe-labelled cysteine peptide fold change” value was 0.149.
“NTHL1_P78549_118_DAPVDHLGTEHCYDSSAPPK (UniProt P78549)” was tested, and the “probe-labelled cysteine peptide fold change” value was -0.282.
For “NOL8_Q76FK4_517_SDGPETTTQCK (UniProt Q76FK4)”, the “probe-labelled cysteine peptide fold change” value was 0.046.
